# The supplement of paper PMC10849652
# Protein sequences, listed by entry. Tags and fused reporters are not part of them. Lines headed by an entry give the natural chain unless they say otherwise; changes in a name come on top.
# UniProt Q12857, whole entry, looked up: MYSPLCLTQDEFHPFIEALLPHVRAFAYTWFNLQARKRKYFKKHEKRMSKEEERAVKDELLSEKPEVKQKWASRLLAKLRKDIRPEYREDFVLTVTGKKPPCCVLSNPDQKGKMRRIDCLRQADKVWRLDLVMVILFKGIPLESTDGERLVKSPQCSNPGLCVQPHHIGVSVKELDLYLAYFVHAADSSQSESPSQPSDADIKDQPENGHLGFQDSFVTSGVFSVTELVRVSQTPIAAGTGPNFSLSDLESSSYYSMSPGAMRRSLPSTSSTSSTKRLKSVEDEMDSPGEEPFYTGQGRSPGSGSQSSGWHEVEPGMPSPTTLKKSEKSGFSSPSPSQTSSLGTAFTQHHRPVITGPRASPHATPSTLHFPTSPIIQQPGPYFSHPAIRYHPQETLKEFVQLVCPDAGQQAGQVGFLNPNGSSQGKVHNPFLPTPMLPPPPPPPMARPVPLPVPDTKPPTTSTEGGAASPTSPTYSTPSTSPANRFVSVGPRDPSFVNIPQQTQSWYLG
# UniProt Q86WQ0: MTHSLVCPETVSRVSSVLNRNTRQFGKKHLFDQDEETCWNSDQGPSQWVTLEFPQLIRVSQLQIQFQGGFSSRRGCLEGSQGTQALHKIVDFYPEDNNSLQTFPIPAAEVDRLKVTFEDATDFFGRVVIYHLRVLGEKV
# UniProt Q9Y2X3: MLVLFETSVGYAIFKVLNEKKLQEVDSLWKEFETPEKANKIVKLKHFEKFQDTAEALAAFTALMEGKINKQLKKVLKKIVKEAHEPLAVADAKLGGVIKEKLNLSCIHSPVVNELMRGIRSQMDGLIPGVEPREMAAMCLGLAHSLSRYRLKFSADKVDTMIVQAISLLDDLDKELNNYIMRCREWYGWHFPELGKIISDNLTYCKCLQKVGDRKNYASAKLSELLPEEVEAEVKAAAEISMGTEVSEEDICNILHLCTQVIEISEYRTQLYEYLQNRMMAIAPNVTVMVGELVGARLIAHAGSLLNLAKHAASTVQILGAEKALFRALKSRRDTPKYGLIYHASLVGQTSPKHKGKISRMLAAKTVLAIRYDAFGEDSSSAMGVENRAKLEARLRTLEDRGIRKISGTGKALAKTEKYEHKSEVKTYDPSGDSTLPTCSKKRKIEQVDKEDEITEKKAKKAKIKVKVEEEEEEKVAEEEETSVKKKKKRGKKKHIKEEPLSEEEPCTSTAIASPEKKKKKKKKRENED
# UniProt Q9UHY1: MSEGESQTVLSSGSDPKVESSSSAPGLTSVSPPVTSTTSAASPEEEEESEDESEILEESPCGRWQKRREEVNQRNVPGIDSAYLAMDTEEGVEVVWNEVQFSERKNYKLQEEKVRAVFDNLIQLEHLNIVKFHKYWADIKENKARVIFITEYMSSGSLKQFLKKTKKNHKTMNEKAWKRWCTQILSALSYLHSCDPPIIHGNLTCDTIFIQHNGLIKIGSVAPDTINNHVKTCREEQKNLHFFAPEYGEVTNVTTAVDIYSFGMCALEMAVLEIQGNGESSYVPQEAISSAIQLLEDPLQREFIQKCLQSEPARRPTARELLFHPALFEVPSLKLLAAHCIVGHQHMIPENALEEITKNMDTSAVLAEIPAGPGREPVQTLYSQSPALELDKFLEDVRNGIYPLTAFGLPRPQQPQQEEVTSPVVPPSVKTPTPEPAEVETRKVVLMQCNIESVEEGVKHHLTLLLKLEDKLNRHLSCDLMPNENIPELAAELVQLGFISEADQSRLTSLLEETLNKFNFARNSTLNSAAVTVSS
# UniProt Q13952: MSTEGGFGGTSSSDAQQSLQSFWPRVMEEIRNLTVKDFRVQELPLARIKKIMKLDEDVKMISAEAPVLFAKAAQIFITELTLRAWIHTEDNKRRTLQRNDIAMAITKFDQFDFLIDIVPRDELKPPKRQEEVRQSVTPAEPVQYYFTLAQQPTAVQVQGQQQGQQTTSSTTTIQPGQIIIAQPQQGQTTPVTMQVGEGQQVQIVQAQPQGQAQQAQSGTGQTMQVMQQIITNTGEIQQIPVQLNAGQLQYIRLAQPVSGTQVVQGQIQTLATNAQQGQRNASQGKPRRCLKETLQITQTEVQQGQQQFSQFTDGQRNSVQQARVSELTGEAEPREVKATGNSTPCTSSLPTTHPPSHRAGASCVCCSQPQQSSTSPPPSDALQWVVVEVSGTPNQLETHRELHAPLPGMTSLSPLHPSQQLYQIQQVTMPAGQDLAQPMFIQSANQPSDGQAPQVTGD
# UniProt Q96IV0: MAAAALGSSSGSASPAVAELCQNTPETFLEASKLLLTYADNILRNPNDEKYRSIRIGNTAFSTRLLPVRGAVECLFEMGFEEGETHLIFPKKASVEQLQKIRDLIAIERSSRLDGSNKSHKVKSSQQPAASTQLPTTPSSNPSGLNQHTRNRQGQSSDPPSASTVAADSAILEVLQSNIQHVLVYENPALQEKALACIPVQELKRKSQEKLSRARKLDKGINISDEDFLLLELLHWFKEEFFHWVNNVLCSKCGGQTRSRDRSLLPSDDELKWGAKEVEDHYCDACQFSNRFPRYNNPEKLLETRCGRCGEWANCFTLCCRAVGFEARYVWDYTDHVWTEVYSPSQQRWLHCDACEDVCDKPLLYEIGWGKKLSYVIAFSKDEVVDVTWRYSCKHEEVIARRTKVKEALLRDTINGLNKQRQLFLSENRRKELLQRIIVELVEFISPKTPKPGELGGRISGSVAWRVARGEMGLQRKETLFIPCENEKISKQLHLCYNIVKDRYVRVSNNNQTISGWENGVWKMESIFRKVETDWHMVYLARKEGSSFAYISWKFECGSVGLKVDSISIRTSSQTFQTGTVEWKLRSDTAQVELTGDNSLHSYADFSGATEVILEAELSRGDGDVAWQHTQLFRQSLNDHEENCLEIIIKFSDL
# UniProt Q9HAN9, whole entry, looked up: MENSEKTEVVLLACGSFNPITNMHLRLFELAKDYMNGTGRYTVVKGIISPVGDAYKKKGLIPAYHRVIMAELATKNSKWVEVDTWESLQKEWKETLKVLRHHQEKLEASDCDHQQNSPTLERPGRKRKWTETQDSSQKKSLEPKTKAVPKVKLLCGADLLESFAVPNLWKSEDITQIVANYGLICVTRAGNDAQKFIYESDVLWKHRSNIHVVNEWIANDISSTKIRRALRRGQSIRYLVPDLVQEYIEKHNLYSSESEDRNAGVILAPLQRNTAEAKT
# UniProt Q12986: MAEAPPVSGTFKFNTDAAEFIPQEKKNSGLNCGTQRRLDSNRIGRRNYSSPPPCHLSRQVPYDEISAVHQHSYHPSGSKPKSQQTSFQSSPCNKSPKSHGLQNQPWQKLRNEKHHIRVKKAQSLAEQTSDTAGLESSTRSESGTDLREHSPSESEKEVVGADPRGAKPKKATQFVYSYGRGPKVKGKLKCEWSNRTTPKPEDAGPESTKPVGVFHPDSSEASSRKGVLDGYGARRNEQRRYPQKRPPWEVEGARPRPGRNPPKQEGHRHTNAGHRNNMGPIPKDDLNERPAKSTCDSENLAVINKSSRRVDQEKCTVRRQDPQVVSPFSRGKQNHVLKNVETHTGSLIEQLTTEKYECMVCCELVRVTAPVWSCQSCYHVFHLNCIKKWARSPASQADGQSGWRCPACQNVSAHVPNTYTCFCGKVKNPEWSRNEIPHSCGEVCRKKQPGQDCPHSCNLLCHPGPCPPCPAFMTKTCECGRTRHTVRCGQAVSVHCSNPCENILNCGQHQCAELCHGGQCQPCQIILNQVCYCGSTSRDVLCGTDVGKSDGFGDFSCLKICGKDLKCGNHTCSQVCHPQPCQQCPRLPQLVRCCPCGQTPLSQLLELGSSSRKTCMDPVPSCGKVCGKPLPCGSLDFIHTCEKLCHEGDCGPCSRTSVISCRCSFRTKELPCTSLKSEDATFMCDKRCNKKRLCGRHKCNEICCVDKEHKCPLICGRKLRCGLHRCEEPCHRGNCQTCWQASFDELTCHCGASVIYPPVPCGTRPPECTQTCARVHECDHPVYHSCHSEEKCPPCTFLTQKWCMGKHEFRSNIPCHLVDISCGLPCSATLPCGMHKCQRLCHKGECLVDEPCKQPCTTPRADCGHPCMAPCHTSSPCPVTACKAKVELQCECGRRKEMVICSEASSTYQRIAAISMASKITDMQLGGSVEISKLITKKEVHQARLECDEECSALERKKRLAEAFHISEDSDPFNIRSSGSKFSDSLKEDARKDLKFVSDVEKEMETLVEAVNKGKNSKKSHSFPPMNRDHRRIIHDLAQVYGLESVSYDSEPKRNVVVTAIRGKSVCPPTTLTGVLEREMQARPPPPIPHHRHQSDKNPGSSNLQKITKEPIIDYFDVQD
# UniProt P40261: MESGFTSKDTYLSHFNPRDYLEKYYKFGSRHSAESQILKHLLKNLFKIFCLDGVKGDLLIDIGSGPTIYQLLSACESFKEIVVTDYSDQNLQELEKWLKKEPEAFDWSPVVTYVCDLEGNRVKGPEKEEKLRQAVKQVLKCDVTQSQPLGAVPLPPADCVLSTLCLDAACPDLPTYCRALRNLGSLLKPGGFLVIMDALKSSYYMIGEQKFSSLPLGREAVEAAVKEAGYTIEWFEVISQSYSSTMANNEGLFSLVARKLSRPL
# UniProt Q13469: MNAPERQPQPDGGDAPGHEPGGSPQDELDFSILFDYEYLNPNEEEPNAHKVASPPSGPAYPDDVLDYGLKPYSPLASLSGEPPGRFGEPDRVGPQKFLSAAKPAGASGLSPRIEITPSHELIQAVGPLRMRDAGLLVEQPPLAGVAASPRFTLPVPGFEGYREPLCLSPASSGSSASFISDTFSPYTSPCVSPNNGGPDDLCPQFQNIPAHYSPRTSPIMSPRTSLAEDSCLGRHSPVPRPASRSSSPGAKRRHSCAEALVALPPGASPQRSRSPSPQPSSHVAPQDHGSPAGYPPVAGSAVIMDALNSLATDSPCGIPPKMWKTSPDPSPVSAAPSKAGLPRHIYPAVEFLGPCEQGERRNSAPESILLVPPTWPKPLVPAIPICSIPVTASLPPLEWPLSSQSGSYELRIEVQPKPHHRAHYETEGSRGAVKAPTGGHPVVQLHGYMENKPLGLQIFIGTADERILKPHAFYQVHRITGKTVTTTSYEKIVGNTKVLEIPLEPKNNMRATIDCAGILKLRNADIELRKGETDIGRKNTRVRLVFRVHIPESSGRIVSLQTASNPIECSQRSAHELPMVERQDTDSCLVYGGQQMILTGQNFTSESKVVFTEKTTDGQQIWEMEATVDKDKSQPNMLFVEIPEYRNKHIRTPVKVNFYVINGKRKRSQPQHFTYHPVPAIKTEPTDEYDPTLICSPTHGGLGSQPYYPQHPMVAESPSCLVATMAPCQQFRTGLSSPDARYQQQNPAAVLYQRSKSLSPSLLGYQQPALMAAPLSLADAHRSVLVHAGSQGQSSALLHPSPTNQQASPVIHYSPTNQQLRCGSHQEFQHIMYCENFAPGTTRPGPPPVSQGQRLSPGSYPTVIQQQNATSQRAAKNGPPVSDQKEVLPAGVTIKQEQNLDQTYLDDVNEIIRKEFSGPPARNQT
# UniProt Q8TDX7: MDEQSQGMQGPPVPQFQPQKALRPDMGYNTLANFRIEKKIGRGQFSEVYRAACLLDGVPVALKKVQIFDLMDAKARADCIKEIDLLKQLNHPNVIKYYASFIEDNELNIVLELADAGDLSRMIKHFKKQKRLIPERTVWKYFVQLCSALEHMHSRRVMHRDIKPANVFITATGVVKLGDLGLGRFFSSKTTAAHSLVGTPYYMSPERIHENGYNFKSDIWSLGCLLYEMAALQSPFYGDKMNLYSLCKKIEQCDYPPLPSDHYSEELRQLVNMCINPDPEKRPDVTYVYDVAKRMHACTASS
# UniProt O75414: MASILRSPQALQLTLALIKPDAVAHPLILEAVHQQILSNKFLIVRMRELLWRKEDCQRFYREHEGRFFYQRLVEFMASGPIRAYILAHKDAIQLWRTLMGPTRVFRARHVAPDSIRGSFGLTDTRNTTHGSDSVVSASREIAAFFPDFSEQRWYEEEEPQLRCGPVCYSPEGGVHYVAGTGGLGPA
# UniProt P49116: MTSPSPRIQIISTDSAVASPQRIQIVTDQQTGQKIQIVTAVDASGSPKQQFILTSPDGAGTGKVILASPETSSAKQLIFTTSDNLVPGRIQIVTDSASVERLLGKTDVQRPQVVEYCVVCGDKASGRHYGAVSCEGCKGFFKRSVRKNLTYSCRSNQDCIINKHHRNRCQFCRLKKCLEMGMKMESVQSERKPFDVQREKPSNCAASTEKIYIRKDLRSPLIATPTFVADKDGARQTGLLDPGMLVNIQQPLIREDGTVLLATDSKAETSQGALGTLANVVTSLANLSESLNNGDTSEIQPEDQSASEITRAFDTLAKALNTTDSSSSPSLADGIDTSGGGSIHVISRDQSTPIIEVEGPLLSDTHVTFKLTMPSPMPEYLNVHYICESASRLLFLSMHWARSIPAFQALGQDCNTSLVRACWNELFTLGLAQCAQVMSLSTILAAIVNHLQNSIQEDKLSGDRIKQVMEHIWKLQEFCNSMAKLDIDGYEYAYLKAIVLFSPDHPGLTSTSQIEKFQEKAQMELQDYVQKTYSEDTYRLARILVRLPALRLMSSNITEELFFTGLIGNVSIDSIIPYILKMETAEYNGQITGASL
# This is one part of the list.
# Tests used:
# Assay in all cases: log2 fold change, soluble protein after heating vs DMSO (PISA); higher = thermal stabilisation; K562 cells, 10 uM, 30 min; active = over 0.2 and 3.5 SD of the protein, either way, in both replicates (recomputed)
# [1] = compound: CC[C@@H]1C(=O)N(C)c2cnc(Nc3ccc(C(=O)NC4CCN(C)CC4)cc3OC)nc2N1C1CCCC1
# Outline: (§1)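 K562 cells at 2×10^6 cells/mL were treated for 30 min with 10 μM compound, and aliquots were heated for 3 min over 48°C-58°C before pooling. Extraction used PBS with 0.5% NP-40 at 4°C, and soluble protein was the supernatant after 21,000xg for 90 min, measured by TMTpro 16plex LC-MS/MS with channel sums equalised. Thermal stability values, relative to control samples and from duplicates, are log2 fold changes.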
# volasertib = compound: CC[C@@H]1C(=O)N(C)c2cnc(Nc3ccc(C(=O)N[C@H]4CC[C@H](N5CCN(CC6CC6)CC5)CC4)cc3OC)nc2N1C(C)C [volasertib]
# Outline: as §1
# [2] = compound: CC[C@H](C)N1C=C(C2=C(C=C(C=C21)C3=CN=C(C=C3)N4CCNCC4)C(=O)NCC5=C(C=C(NC5=O)C)C)C
# Outline: as §1
# epoxomicin = compound: CC[C@H](C)[C@@H](C(=O)N[C@@H]([C@@H](C)O)C(=O)N[C@@H](CC(C)C)C(=O)[C@]1(CO1)C)NC(=O)[C@H]([C@@H](C)CC)N(C)C(=O)C [epoxomicin]
# Outline: as §1
# [3] = compound: CCn1c(C(=O)N(C2CC2)C2CC2)cc2c3c(ncn3C)c(Nc3cc(C)n(C)n3)nc21
# Outline: as §1
# [4] = compound: CCn1cc(-c2ccnc3[nH]c(-c4cccc(CN(C)C)c4)cc23)c(-c2ccc(NC(=O)N(C)C)cc2)n1
# Outline: as §1
# [5] = compound: CN(C)CC(=O)Nc1ccc2[nH]c(=O)c3ccccc3c2c1
# Outline: as §1
# rosiglitazone = compound: CN(CCOC1=CC=C(C=C1)C[C@H]2C(=O)NC(=O)S2)C3=CC=CC=N3 (racemic) [rosiglitazone]
# Outline: as §1
# [6] = compound: CN1C2=C(C3=C1C(=O)N(N=C3)CC4=CC(=CC=C4)N)SC(=C2)S(=O)C
# Outline: as §1
# [7] = compound: CN1CCC(CNc2ccc3ncc(-c4cccc(OC(F)(F)F)c4)n3n2)CC1
# Outline: as §1
# saracatinib = compound: CN1CCN(CCOc2cc(OC3CCOCC3)c3c(Nc4c(Cl)ccc5c4OCO5)ncnc3c2)CC1 [saracatinib]
# Outline: as §1
# sotrastaurin = compound: CN1CCN(c2nc(C3=C(c4c[nH]c5ccccc45)C(=O)NC3=O)c3ccccc3n2)CC1 [sotrastaurin]
# Outline: as §1
# alvocidib = compound: CN1CC[C@H](c2c(O)cc(O)c3c(=O)cc(-c4ccccc4Cl)oc23)[C@H](O)C1 [alvocidib]
# Outline: as §1
# Tubastatin A = compound: CN1CCc2c(c3ccccc3n2Cc2ccc(C(=O)NO)cc2)C1 [Tubastatin A]
# Outline: as §1
# [8] = compound: CNC(=O)C1=CC=CC=C1NC2=NC(=NC=C2Cl)NC3=C(C=C(C=C3)N4CCOCC4)OC
# Outline: as §1
# defactinib = compound: CNC(=O)c1ccc(Nc2ncc(C(F)(F)F)c(NCc3nccnc3N(C)S(C)(=O)=O)n2)cc1 [defactinib]
# Outline: as §1
# rucaparib = compound: CNCc1ccc(-c2[nH]c3cc(F)cc4c3c2CCNC4=O)cc1 [rucaparib]
# Outline: as §1
# [9] = compound: CNc1nc(-c2ccc3c(N)n[nH]c3c2)cc(N2C[C@@H](C(=O)NC3CCCCC3)CC[C@H]2C)n1
# Outline: as §1
# encorafenib = compound: COC(=O)N[C@@H](C)CNc1nccc(-c2cn(C(C)C)nc2-c2cc(Cl)cc(NS(C)(=O)=O)c2F)n1 [encorafenib]
# Outline: as §1
# [10] = compound: COC(=O)[C@H](CCSC)NC(=O)C1=C(C=C(C=C1)NC[C@H](CS)N)C2=CC=CC=C2
# Outline: as §1
Target,log2 fold change [1],log2 fold change (volasertib),log2 fold change [2],log2 fold change (epoxomicin),log2 fold change [3],log2 fold change [4],log2 fold change [5],log2 fold change (rosiglitazone),log2 fold change [6],log2 fold change [7],log2 fold change (saracatinib),log2 fold change (sotrastaurin),log2 fold change (alvocidib),log2 fold change (Tubastatin A),log2 fold change [8],log2 fold change (defactinib),log2 fold change (rucaparib),log2 fold change [9],log2 fold change (encorafenib),log2 fold change [10]
NFIA isoform 4 (UniProt Q12857),inactive: 0.149,inactive: 0.065,inactive: -0.043,inactive: 0.014,inactive: -0.066,inactive: 0.084,inactive: -0.068,inactive: -0.012,inactive: -0.058,inactive: 0.046,inactive: -0.012,inactive: 0.003,inactive: -0.002,inactive: -0.076,inactive: 0.084,inactive: 0.025,inactive: -0.004,inactive: -0.041,inactive: 0.015,inactive: -0.005
NIP7 (UniProt Q9Y221),inactive: 0.156,inactive: 0.224,inactive: -0.065,inactive: -0.231,inactive: -0.148,inactive: 0.131,inactive: -0.109,inactive: -0.039,inactive: 0.272,inactive: 0.277,inactive: -0.056,inactive: 0.069,inactive: 0.279,inactive: -0.061,inactive: -0.05,inactive: 0.408,inactive: 0.534,inactive: -0.014,inactive: 0.039,inactive: 0.018
NR2C2AP isoform 2 (UniProt Q86WQ0),inactive: -0.108,inactive: -0.061,inactive: -0.018,inactive: 0.023,–,inactive: 0.018,inactive: 0,–,inactive: -0.223,inactive: -0.152,inactive: 0.086,inactive: 0.018,–,inactive: 0.099,inactive: 0.027,inactive: -0.106,inactive: -0.031,inactive: 0.073,inactive: -0.048,inactive: -0.115
NOP58 (UniProt Q9Y2X3),inactive: 0.095,inactive: -0.066,inactive: 0.057,inactive: -0.263,–,inactive: 0.192,inactive: 0.052,–,inactive: 0.234,inactive: 0.2,inactive: -0.044,inactive: -0.008,–,inactive: 0.014,inactive: -0.058,inactive: -0.004,inactive: 0.304,inactive: -0.01,inactive: 0.106,inactive: -0.076
NRBP1 (UniProt Q9UHY1),inactive: -0.03,inactive: -0.053,inactive: 0.054,inactive: 0.019,inactive: -0.05,inactive: -0.064,inactive: 0.018,inactive: 0.025,inactive: -0.003,inactive: 0.015,inactive: 0.092,inactive: -0.038,inactive: -0.062,inactive: 0.013,inactive: 0.026,inactive: -0.064,inactive: -0.003,inactive: -0.039,inactive: 0.005,inactive: -0.023
NFYC (UniProt Q13952),inactive: 0.012,inactive: 0.015,inactive: -0.021,inactive: -0.001,–,inactive: -0.015,inactive: 0.041,–,inactive: -0.063,inactive: 0,inactive: 0.011,inactive: 0.012,–,inactive: -0.021,inactive: -0.022,inactive: -0.022,inactive: -0.041,inactive: -0.019,inactive: 0.005,inactive: 0.005
NGLY1 (UniProt Q96IV0),inactive: -0.07,active: -0.367,inactive: 0.04,inactive: -0.071,–,inactive: -0.03,inactive: 0.055,–,inactive: 0.044,inactive: -0.116,inactive: -0.04,inactive: -0.135,–,inactive: -0.04,inactive: 0.01,inactive: -0.026,inactive: 0.161,inactive: 0.05,inactive: 0.159,inactive: -0.064
NLN (UniProt Q9BYT8),inactive: 0.017,inactive: 0.041,inactive: -0.001,inactive: 0.056,inactive: -0.027,inactive: -0.064,inactive: -0.01,inactive: -0.002,inactive: -0.025,inactive: -0.044,inactive: 0.006,inactive: 0.026,inactive: -0.028,inactive: 0.06,inactive: -0.059,inactive: -0.013,inactive: -0.023,inactive: -0.012,inactive: -0.026,inactive: 0.052
NMNAT1 (UniProt Q9HAN9),inactive: 0.302,inactive: 0.161,inactive: -0.007,inactive: -0.168,–,inactive: 0.098,inactive: -0.092,–,inactive: 0.228,inactive: 0.053,inactive: -0.044,inactive: -0.033,–,inactive: 0.07,inactive: -0.121,inactive: 0.237,inactive: 0.354,inactive: 0.02,inactive: 0.147,inactive: 0.091
NFX1 (UniProt Q12986),inactive: 0.029,inactive: 0.15,inactive: -0.001,inactive: -0.144,–,inactive: 0.232,inactive: -0.216,–,inactive: 0.128,inactive: 0.197,inactive: -0.246,inactive: -0.09,–,inactive: -0.001,inactive: 0.014,inactive: 0.009,inactive: 0.269,inactive: -0.237,inactive: -0.01,inactive: 0
NNMT (UniProt P40261),inactive: 0.003,inactive: -0.197,inactive: 0.023,inactive: 0.039,–,inactive: -0.068,inactive: -0.042,–,inactive: -0.025,inactive: -0.152,inactive: -0.041,inactive: 0.01,–,inactive: -0.081,inactive: 0.016,inactive: 0.004,inactive: -0.078,inactive: 0.021,inactive: -0.021,inactive: 0.038
NFATC2 (UniProt Q13469),inactive: -0.098,inactive: -0.281,inactive: 0.19,inactive: -0.001,–,inactive: -0.197,inactive: 0.065,–,inactive: 0.039,inactive: -0.102,inactive: -0.128,inactive: -0.166,–,inactive: 0.118,inactive: 0.007,inactive: -0.14,inactive: -0.047,active: -0.382,inactive: 0.101,inactive: 0.071
NPC2 (UniProt P61916),inactive: -0.002,inactive: -0.073,inactive: 0,inactive: 0.023,inactive: 0.03,inactive: -0.051,inactive: -0.008,inactive: -0.043,inactive: -0.037,inactive: 0.025,inactive: 0.065,inactive: 0.01,inactive: -0.007,inactive: -0.091,inactive: 0.139,inactive: 0.044,inactive: -0.163,inactive: 0.004,inactive: 0,inactive: 0.102
NRM (UniProt Q8IXM6),inactive: 0.019,inactive: 0.018,inactive: -0.05,inactive: 0,inactive: -0.029,inactive: -0.022,inactive: 0.108,inactive: 0.017,–,inactive: -0.014,–,inactive: 0.091,inactive: -0.011,inactive: -0.015,inactive: -0.031,inactive: 0.059,inactive: -0.041,–,inactive: 0,inactive: 0.053
NEK7 (UniProt Q8TDX7),inactive: -0.05,inactive: -0.055,inactive: 0.086,inactive: 0.046,inactive: -0.025,inactive: -0.027,inactive: -0.054,inactive: 0.034,inactive: -0.028,inactive: -0.062,inactive: 0.016,inactive: -0.041,inactive: -0.07,inactive: 0.022,inactive: -0.002,inactive: 0.003,inactive: 0.034,inactive: -0.032,inactive: 0.043,inactive: 0.014
NME6 (UniProt O75414),inactive: 0.07,inactive: -0.034,inactive: -0.014,inactive: -0.036,inactive: -0.031,inactive: -0.073,inactive: -0.006,inactive: -0.011,inactive: -0.006,inactive: 0.045,inactive: 0.02,inactive: -0.041,inactive: 0.037,inactive: 0.002,inactive: -0.028,inactive: -0.047,inactive: -0.022,inactive: -0.022,inactive: -0.027,inactive: -0.058
NR2C2 isoform 2 (UniProt P49116),inactive: 0.051,inactive: -0.102,inactive: 0.055,inactive: 0.036,–,inactive: 0.049,inactive: -0.069,–,inactive: 0.036,inactive: 0.046,inactive: 0.052,inactive: -0.041,–,inactive: -0.013,inactive: 0.005,inactive: 0.001,inactive: 0.071,inactive: -0.044,inactive: 0.053,inactive: 0.028

# Random excerpt: two entries already listed, in no set order.
Target,log2 fold change [1],log2 fold change (volasertib),log2 fold change [2],log2 fold change (epoxomicin),log2 fold change [3],log2 fold change [4],log2 fold change [5],log2 fold change (rosiglitazone),log2 fold change [6],log2 fold change [7],log2 fold change (saracatinib),log2 fold change (sotrastaurin),log2 fold change (alvocidib),log2 fold change (Tubastatin A),log2 fold change [8],log2 fold change (defactinib),log2 fold change (rucaparib),log2 fold change [9],log2 fold change (encorafenib),log2 fold change [10]
NNMT (UniProt P40261),inactive: 0.003,inactive: -0.197,inactive: 0.023,inactive: 0.039,–,inactive: -0.068,inactive: -0.042,–,inactive: -0.025,inactive: -0.152,inactive: -0.041,inactive: 0.01,–,inactive: -0.081,inactive: 0.016,inactive: 0.004,inactive: -0.078,inactive: 0.021,inactive: -0.021,inactive: 0.038
NFIA isoform 4 (UniProt Q12857),inactive: 0.149,inactive: 0.065,inactive: -0.043,inactive: 0.014,inactive: -0.066,inactive: 0.084,inactive: -0.068,inactive: -0.012,inactive: -0.058,inactive: 0.046,inactive: -0.012,inactive: 0.003,inactive: -0.002,inactive: -0.076,inactive: 0.084,inactive: 0.025,inactive: -0.004,inactive: -0.041,inactive: 0.015,inactive: -0.005
